Reference: the supplement of paper PMC11542785
Where a name gives a salt, the structure may show the parent alone. The list shows a part of the results. Many values rest on one well or one pass, so single values are uncertain.

Tested on: Drosophila melanogaster DPAGT1 (Alg7) RNAi eye model
Experiment: eye size Z-score vs DMSO-treated DPAGT1 model flies; higher = larger eye (suppression of DPAGT1 phenotype)
Settings: 5 uM

Row | Compound | eye size Z-score | eye size Z-score (female)
1 | COc1ccc2[nH]cc(CCNC(C)=O)c2c1 [Melatonin] | 2.38 | 
2 | CCCCS(=O)(=O)N[C@@H](Cc1ccc(OCCCCC2CCNCC2)cc1)C(=O)O [Tirofiban hydrochloride] | -0.21 | 
3 | COc1cc2nc(N3CCN(C(=O)c4ccco4)CC3)nc(N)c2cc1OC [Prazosin hydrochloride] | 0.36 | 
4 | CCn1cc(C(=O)O)c(=O)c2cnc(N3CCNCC3)nc21 [Pipemidic acid] | 0.6 | 
5 | COc1nc(C)nc(Cl)c1NC1=NCCN1 [Moxonidine] | -0.03 | 
6 | CCC(C)C(C(=O)OCC[N+](C)(CC)CC)c1ccccc1 (stereo unspecified) [Valethamate bromide] |  | 0.33
7 | Cc1ccc(S(=O)(=O)NC(=O)NN2CC3CCCC3C2)cc1 (stereo unspecified) [Gliclazide] | 0.48 | 
8 | CC(=O)N[C@@H](CC(=O)N[C@@H](CCC(=O)O)C(=O)O)C(=O)O [Spaglumic acid] | 0.75 | 
9 | C#CCN(C)Cc1ccccc1 [Pargyline hydrochloride] | 0.75 | 
10 | COc1ccc2cc(CCC(C)=O)ccc2c1 [Nabumetone] |  | -1.41
11 | C[C@H]1[C@@H](O)O[C@@H]2O[C@@]3(C)CC[C@H]4[C@H](C)CC[C@@H]1[C@@]24OO3 [Artenimol] | -1.18 | 
12 | CCn1cc(C(=O)O)c(=O)c2ccc(C)nc21 [Nalidixic acid sodium salt] | -0.08 | 
13 | CCN(CC)CCNC(=O)c1cc(S(C)(=O)=O)ccc1OC [Tiapride hydrochloride] | -0.17 | 
14 | O=C(CCCN1CC=C(n2c(=O)[nH]c3ccccc32)CC1)c1ccc(F)cc1 [Droperidol] | 0.75 | 
15 | CC1(C)OC(=O)NC1=O [Dimethadione] | -1.26 | 
16 | N=C(N)NCC1COC2(CCCCC2)O1 (stereo unspecified) [Guanadrel sulfate] | 0.16 | 
17 | Cn1nnnc1SCC1=C(C(=O)O)N2C(=O)[C@@H](NC(=O)[C@H](O)c3ccccc3)[C@H]2SC1 [Cefamandole sodium salt] | 0.82 | 
18 | CCC[C@H](N[C@@H](C)C(=O)N1[C@H](C(=O)O)C[C@@H]2CCCC[C@@H]21)C(=O)OCC [Perindopril] | 0.34 | 
19 | COc1ccc(NS(=O)(=O)c2ccc(N)cc2)nn1 [Sulfamethoxypyridazine] | 0.13 | 
20 | Nc1ccc(S(=O)(=O)c2ccc(N)cc2)cc1 [Dapsone] | 0.94 | 
21 | OCCN1CCN(CCCN2c3ccccc3Sc3ccc(Cl)cc32)CC1 [Perphenazine] | 0.67 | 
22 | CN(C)CCc1c[nH]c2ccc(Cn3cncn3)cc12 [Rizatriptan benzoate] | 0 | 
23 | C=C1C[C@H]2[C@@H]3C=C(C)C4=CC(=O)CC[C@]4(C)[C@H]3CC[C@]2(C)[C@@]1(OC(C)=O)C(C)=O [Melengestrol acetate] | 1.18 | 
24 | CC(=O)Oc1cccc2c1C(=O)c1c(OC(C)=O)cc(C(=O)O)cc1C2=O [Diacerein] | -0.3 | 

From entry 3 up to 4, copied from above:
Row | Compound | eye size Z-score | eye size Z-score (female)
3 | COc1cc2nc(N3CCN(C(=O)c4ccco4)CC3)nc(N)c2cc1OC [Prazosin hydrochloride] | 0.36 | 
4 | CCn1cc(C(=O)O)c(=O)c2cnc(N3CCNCC3)nc21 [Pipemidic acid] | 0.6 | 

The listing continues.

Row | Compound | eye size Z-score | eye size Z-score (female)
25 | CN1CCCCC1CCN1c2ccccc2Sc2ccc([S+](C)[O-])cc21 (stereo unspecified) [Mesoridazine besylate] | 0.61 | 
26 | NC(=O)N/N=C/c1ccc([N+](=O)[O-])o1 [Nitrofural] | -0.01 | 
27 | CN(C)CCC[C@@]1(c2ccc(F)cc2)OCc2cc(C#N)ccc21 [Escitalopram oxalate] | -1.48 | 
28 | CCCC(=O)Nc1ncnc2c1ncn2[C@@H]1O[C@@H]2COP(=O)(O)O[C@H]2[C@H]1OC(=O)CCC [Bucladesine sodium salt] | -0.3 | 
29 | CN1CCCC(n2nc(Cc3ccc(Cl)cc3)c3ccccc3c2=O)CC1 (stereo unspecified) [Azelastine hydrochloride] | -1.08 | 
30 | CCN1CCN(C(=O)N[C@@H](C(=O)N[C@@H]2C(=O)N3[C@@H]2SC(C)(C)[C@@H]3C(=O)O)c2ccccc2)C(=O)C1=O [Piperacillin sodium salt] | 1.21 | 
31 | CO[C@@H]1[C@@H](OC(N)=O)[C@@H](O)[C@H](Oc2ccc3c(O)c(NC(=O)c4ccc(O)c(CC=C(C)C)c4)c(=O)oc3c2C)OC1(C)C [Novobiocin sodium salt] | 0.2 | 
32 | CC(C)(C)NC[C@H](O)COc1nsnc1N1CCOCC1 [Timolol maleate salt] | -0.14 | 
33 | O=C(Nc1cccc2c(=O)cc(-c3nnn[nH]3)oc12)c1ccc(OCCCCc2ccccc2)cc1 [Pranlukast] | -0.16 | 
34 | CCOC(=O)[C@H](CCc1ccccc1)N[C@H]1CCc2ccccc2N(CC(=O)O)C1=O [Benazepril hydrochloride] | -0.2 | 
35 | COC1=C(OC)C(=O)C(CCCCCCCCCCO)=C(C)C1=O [Idebenone] | 0.93 | 
36 | CCOC(=O)OC(C)OC(=O)[C@@H]1N2C(=O)[C@@H](NC(=O)[C@H](N)c3ccccc3)[C@H]2SC1(C)C (stereo partly specified) [Bacampicillin hydrochloride] | 0.32 | 
37 | COc1ccc(CN(CCN(C)C)c2ccccn2)cc1 [Pyrilamine maleate] | -0.28 | 
38 | CCCNC(C)C(=O)Nc1ccccc1C (stereo unspecified) [Prilocaine hydrochloride] | -0.36 | 
39 | CC(COc1ccccc1)N(CCCl)Cc1ccccc1 (stereo unspecified) [Phenoxybenzamine hydrochloride] | -0.52 | 
40 | COc1cc(/C=C/C(=O)N2CCN(CC(=O)N3CCCC3)CC2)cc(OC)c1OC [Cinepazide maleate] | -0.25 | 
41 | CC(=O)c1ccc(S(=O)(=O)NC(=O)NC2CCCCC2)cc1 [Acetohexamide] | -0.12 | 
42 | C[C@H](CCc1ccccc1)NC[C@H](O)c1ccc(O)c(C(N)=O)c1 [Dilevalol] | 0.02 | 
43 | CCCCC[C@H](O)/C=C/[C@@H]1[C@@H](C/C=C\CCCC(=O)O)[C@@H](O)C[C@H]1O [Dinoprost trometamol] | 0.56 | 
44 | CCOC(=O)c1ccc(OC(=O)CCCCCNC(=N)N)cc1 [Gabexate mesilate] |  | 1.09
45 | O=C(NC1CCN(CCCCC2(C(=O)NCC(F)(F)F)c3ccccc3-c3ccccc32)CC1)c1ccccc1-c1ccc(C(F)(F)F)cc1 [Lomitapide] | 0.39 | 
46 | CCCN[C@H]1CCc2nc(N)sc2C1 [Pramipexole dihydrochloride] | 0.1 | 
47 | Cc1cc(=O)oc2cc(O)ccc12 [Hymecromone] | -0.76 | 
48 | CN(C)CCCN1c2ccccc2[S+]([O-])c2ccc(Cl)cc21 (stereo unspecified) [Chlorpromazine Sulfoxide] | -1.03 | 

Row | Compound | eye size Z-score | eye size Z-score (female)
49 | Cc1nc2ccccc2n1Cc1ccc(Cl)cc1 [Chlormidazole] | 0.71 | 
50 | Cn1c(=O)c2nc[nH]c2n(C)c1=O [Theophylline monohydrate] | -0.16 | 
51 | c1ccc(C2CN3CCSC3=N2)cc1 (stereo unspecified) [Tetramisole hydrochloride] | -0.15 | 
52 | C=C1c2cccc(O)c2C(=O)C2=C(O)[C@]3(O)C(=O)C(C(N)=O)=C(O)[C@@H](N(C)C)[C@@H]3[C@@H](O)[C@H]12 [Methacycline hydrochloride] | 0.02 | 
53 | Cc1scc2c1N(C(=O)CN1CCN(C)CC1)c1ccccc1NC2=O [Telenzepine dihydrochloride] | -1.31 | 
54 | CO[C@H]1/C=C/O[C@@]2(C)Oc3c(C)c(O)c4c(c3C2=O)C2=NC3(CCN(CC(C)C)CC3)NC2=C(NC(=O)/C(C)=C\C=C\[C@H](C)[C@H](O)[C@@H](C)[C@@H](O)[C@@H](C)[C@H](OC(C)=O)[C@@H]1C)C4=O [Rifabutin] | 0.27 | 
55 | O=C(O)Cc1csc(-c2ccc(Cl)cc2)n1 [Fenclozic acid] | 0.4 | 
56 | O=C(Cn1ccnc1[N+](=O)[O-])NCCO [Etanidazole] | 0.64 | 
57 | CN(C)CCN(Cc1cccs1)c1ccccn1 [Methapyrilene hydrochloride] | 0.27 | 
58 | COc1c(O[C@@H]2O[C@H](CO)[C@@H](O)[C@H](O)[C@H]2O)cc2c(c1OC)-c1ccc(SC)c(=O)cc1[C@@H](NC(C)=O)CC2 [Thiocolchicoside] | 0.01 | 
59 | CO[C@@H]1[C@@H](O[C@@H]2O[C@H](C)[C@@H](O[C@H]3C[C@@](C)(O)[C@@H](O)[C@H](C)O3)[C@H](N(C)C)[C@H]2O)[C@@H](CC=O)C[C@@H](C)[C@@H](O[C@H]2CC[C@H](N(C)C)[C@@H](C)O2)/C=C/C=C/C[C@@H](C)OC(=O)C[C@H]1OC(C)=O [Acetyl spiramycin] | 1.77 | 
60 | Clc1ccc(C(Cn2ccnc2)OCc2c(Cl)cccc2Cl)c(Cl)c1 (stereo unspecified) [Isoconazole] | 1.04 | 
61 | NC(=O)N1c2ccccc2C=Cc2ccccc21 [Carbamazepine] | 1.37 | 
62 | Nc1nc(F)nc2c1ncn2[C@@H]1O[C@H](CO)[C@@H](O)[C@@H]1O [Fludarabine] | -0.18 | 
63 | Nc1nc(=O)c2nc(CNc3ccc(C(=O)N[C@@H](CCC(=O)O)C(=O)O)cc3)cnc2[nH]1 [Folic acid] | -0.38 | 
64 | CC(=O)N[C@@H](CC(C)C)C(=O)O [N-Acetyl-L-leucine] | -0.48 | 
65 | CC(C)C(=O)OCC(=O)[C@@]12O[C@H](C3CCCCC3)O[C@@H]1C[C@H]1[C@@H]3CCC4=CC(=O)C=C[C@]4(C)[C@H]3[C@@H](O)C[C@@]12C [Ciclesonide] | -0.22 | 
66 | O=C1CN2Cc3c(ccc(Cl)c3Cl)N=C2N1 [Anagrelide] | 0.5 | 
67 | CC(C)NCC(O)COc1ccc(COCCOC(C)C)cc1 (stereo unspecified) [Bisoprolol hemifumarate] | 0.52 | 
68 | Nc1nc(=S)c2ncn([C@@H]3O[C@H](CO)[C@@H](O)[C@H]3O)c2[nH]1 [Thioguanosine] | -0.3 | 
69 | CCOCC(O)COc1ccc(NC(=O)CC[S+](C)C)cc1 (stereo unspecified) [Suplatast Tosylate] | 0.6 | 
70 | O=C(NCC(O)CO)c1c(I)c(C(=O)NCC(O)CO)c(I)c(N(CCO)C(=O)CO)c1I (stereo unspecified) [Ioversol] | 0 | 
71 | CO/N=C(\C(=O)N[C@@H]1C(=O)N2C(C(=O)O)=C(COC(N)=O)CS[C@H]12)c1ccco1 [Cefuroxime sodium salt] | 0.28 | 
